Construct, isoform or probe ends are uncertain for at least one entry. At least one verdict rests on a figure or table, not on a statement of the authors. Tags and fusion partners may be left off the protein sequences shown.
Biological target: T1, Orb2-RRM (GST-Orb2 C-terminus) (UniProt Q9VSR3)
T1 sequence (looked up, limits assumed): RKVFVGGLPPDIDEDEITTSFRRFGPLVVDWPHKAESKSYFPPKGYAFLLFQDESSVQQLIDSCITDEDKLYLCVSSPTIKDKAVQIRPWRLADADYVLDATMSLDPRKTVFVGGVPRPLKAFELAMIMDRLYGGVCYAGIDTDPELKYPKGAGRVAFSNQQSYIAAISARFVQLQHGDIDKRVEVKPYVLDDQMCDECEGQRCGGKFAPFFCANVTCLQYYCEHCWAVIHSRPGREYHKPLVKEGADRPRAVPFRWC
Experiment: EMSA
Conditions: labeled 24 nt oligo as probe, equivalent results; 25 mM Tris pH 7.5; recombinant protein; protein details: GST

“ACUUUUGUUUUUAAUGCAUUCCAC [Comp-CPE (competitor A)]”: binds.

Source: paper PMC4022466, “Spermatid Cyst Polarization in Drosophila Depends upon apkc and the CPEB Family Translational Regulator orb2”
